Hit rate of the full screen: of about 360,000 compounds, about 7,500 (2.1%) were called active. The shares of active, inactive and inconclusive entries below differ from those in the screen. The call rests on the fitted dose curve; in most records, active means well fitted inhibition curve with a large enough effect; inconclusive means small, poorly fitted or top-dose-only effect, or effect the other way; inactive means flat fitted curve, though single readings scatter. Potencies of inconclusive entries are doubtful fits and often do not repeat.
assay: Nrf2 qHTS screen for inhibitors; settings: A549 ARE-Fluc reporter, luciferase luminescence, 18-24 h; activity change, negative = inhibition: at 46 µM (top of the series); further: nearly all actives have a fitted effect of over 60% in size
Summary of the method: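 A549 ARE_Fluc cells (5000/well, 5% FBS OPTI-MEM) pre-incubated 2 h, then treated with compounds 18-24 h at 37C/5% CO2 in concentration-response. CellTiter-Fluor viability read first; BugLite luciferase luminescence after 15 min at room temperature gives Nrf2 activity.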
On the % scale 0 is the no-effect control and ±100 the full control effect; potency means the concentration at half of the fitted maximal effect.

| SMILES | Potency | activity change, negative = inhibition |
| --- | --- | --- |
| O=C(CC1C(=O)NCCN1CC1CCCCC1)NC1(c2ccccc2)CC1 (stereo unspecified) | inconclusive: 18.4 µM [falling, single point] | – |
| COc1ccc(N2CCN(C3CCCCC3NS(=O)(=O)c3ccc(Cl)cc3)CC2)cc1 (stereo unspecified) | inconclusive: 23.1 µM [falling, single point] | – |
| Oc1ccccc1C=NN=Cc1ccccc1Cl | inconclusive: 20.6 µM [activator, single point] | – |
| O=S(=O)(/C=C/c1ccccc1)Nc1cccc(S(=O)(=O)NC2=NCCC2)c1 | inconclusive: 23.1 µM [falling, partial curve, poor fit] | – |
| CCOC(=O)N1CCN(C(=O)/C(=C/c2ccccc2OC)NC(=O)c2ccccc2)CC1 | inconclusive: 0.146 µM [falling, partial curve, poor fit] | – |
| CCOC(=O)c1[nH]c2ccc(F)cc2c1NC(=O)c1cc(OC)c(OC)c(OC)c1 | inconclusive: 9.2 µM [falling, partial curve, poor fit] | – |
| CN(Cc1cccc(-n2cccn2)c1)C(=O)CCc1nnc(C2CCCCC2)o1 | inconclusive: 13 µM [activator, partial curve, poor fit] | – |
| COc1ccc(CN2C(=O)[C@@H]3Cc4c([nH]c5ccccc45)C(C)(C)N3C2=O)cc1 | inconclusive: 29.1 µM [falling, single point] | – |
| Cc1ccc2c(c1)COc1c3ccc(C(=O)NCCO)cc3nn1-2 | inconclusive: 0.731 µM [activator, partial curve] | – |
| CCOC(=O)c1nn(-c2ccc(C)c(C)c2)c(=O)c2c(N)scc12 | inconclusive: 25.9 µM [falling, single point] | – |
| Cc1ccc(Cl)cc1NC(=O)C(C)n1nnc2sc3c(c2c1=O)CCCC3 (stereo unspecified) | – | inactive: 6.04% |
| Cc1cccc(N2CCN(S(=O)(=O)c3ccc4c(c3)CCCN4C(=O)C3CCC3)CC2C)c1 (stereo unspecified) | inconclusive: 10.3 µM [falling, partial curve, poor fit] | – |
| O=C(NCC1CCCN(C(=O)CN2CCCCC2)C1)c1ccccc1Cl (stereo unspecified) | inconclusive: 11.6 µM [activator, partial curve, poor fit] | – |
| CN(C)c1cc(-c2ccc(C#N)cc2)oc(=O)c1Cl | inconclusive: 25.9 µM [falling, partial curve, poor fit] | – |
| O=C(COC(=O)Cn1cnc2ccccc21)Nc1cccc(S(=O)(=O)N2CCOCC2)c1 | inconclusive: 20.6 µM [falling, single point] | – |
| O=C(NCCc1ccccc1)C1CCCN(c2cnccn2)C1 (stereo unspecified) | inconclusive: 29.1 µM [falling, single point] | – |

Single records (already shown):
`CN(Cc1cccc(-n2cccn2)c1)C(=O)CCc1nnc(C2CCCCC2)o1` in the list: Potency: inconclusive: 13 µM [activator, partial curve, poor fit]
`COc1ccc(CN2C(=O)[C@@H]3Cc4c([nH]c5ccccc45)C(C)(C)N3C2=O)cc1` in the list: Potency: inconclusive: 29.1 µM [falling, single point]

Source: PubChem BioAssay AID504444 (National Center for Advancing Translational Sciences (NCATS), 2011)
